The experiment relates to L1210 leukemia ip in BDF1 mice, survival T/C. The experiment can be described thus: NCI In Vivo Anticancer Drug Screen. Data for tumor model L1210 Leukemia (intraperitoneal) in B6D2F1 (BDF1) mice. The conditions noted are these: T/C endpoint: mean survival time, higher T/C = longer survival.
The mark [1] stands for this setting: dose: 120.0 mg/kg/injection, schedule: Q01DX Z (oral), vehicle: carboxymethylcellulose (CMC).
Where [2] appears, read: dose: 200.0 mg/kg/injection, schedule: Q04DX003 (ip), vehicle: saline.
[3] abbreviates: dose: 400.0 mg/kg/injection, schedule: Q04DX003 (ip), vehicle: saline.
The mark [4] stands for this setting: dose: 75.0 mg/kg/injection, schedule: Q01DX001 (ip), vehicle: water.
[5] abbreviates: dose: 150.0 mg/kg/injection, schedule: Q01DX001 (ip), vehicle: water.
The mark [6] stands for this setting: dose: 225.0 mg/kg/injection, schedule: Q01DX001 (ip), vehicle: water.

Structures are written as SMILES. The list is a part of this screen's results and no random one: it is rich in T/C values a quarter to a half above the control, in often repeated tests (any T/C) and in doses without a T/C. Further doses and runs are listed elsewhere. T/C: endpoint of the treated group in % of that of the vehicle group. Some entries give survivors of the animals treated and no T/C: the source files T/C as zero there, which appears to mark a toxic dose or a test without result, not a measured value. Some doses without a T/C left all or most animals alive at the check, yet need not have been tolerated: survival well below the control is almost never listed, so the zero probably covers shortened survival too. Survivors were counted at the toxicity check, usually on the fifth day, unless a day is given; later deaths do not show. Schedule codes are those of the source, read here as Q, the interval in days (D) or hours (H), X, the number of doses. Some schedule codes hold Z or #, which are not explained here. Some entries hold several experiments; their values stand side by side, smallest first. Where survival is the endpoint, the PubChem record calls one and a half times the control and up active, and a quarter to a half above the control has no call in these data; cut-offs in other NCI protocols can differ. Some T/C values carry the count of animals alive at the toxicity check (mostly the fifth day); where none is given, no animal had died by that day.

Turning to `O=NN(CCCl)C(=O)Nc1ccc(Br)cn1`, the T/C reads like this: (dose: 6.7 mg/kg/injection, schedule: Q01DX009 (ip), vehicle: carboxymethylcellulose (CMC)) 133 % of control [5 of 6 alive]; (dose: 12.6 mg/kg/injection, schedule: Q01DX009 (ip), vehicle: carboxymethylcellulose (CMC)) 142 % of control [5 of 6 alive]; (dose: 19.0 mg/kg/injection, schedule: Q01DX009 (ip), vehicle: carboxymethylcellulose (CMC)) 137 % of control [5 of 6 alive]; (dose: 29.6 mg/kg/injection, schedule: Q01DX009 (ip), vehicle: carboxymethylcellulose (CMC)) 141 % of control; (dose: 44.0 mg/kg/injection, schedule: Q01DX001 (ip), vehicle: carboxymethylcellulose (CMC)) 133 % of control; (dose: 44.4 mg/kg/injection, schedule: Q01DX001 (ip), vehicle: carboxymethylcellulose (CMC)) 131 % of control. Besides, the T/C reads like this: (dose: 44.4 mg/kg/injection, schedule: Q01DX009 (ip), vehicle: carboxymethylcellulose (CMC)) 131 % of control; (dose: 66.6 mg/kg/injection, schedule: Q01DX001 (ip), vehicle: carboxymethylcellulose (CMC)) 142 % of control; (dose: 100.0 mg/kg/injection, schedule: Q01DX001 (ip), vehicle: carboxymethylcellulose (CMC)) 125 % of control. The survivor count was 6 of 6 (dose: 66.6 mg/kg/injection, schedule: Q01DX009 (ip), vehicle: carboxymethylcellulose (CMC)); 5 of 6 (dose: 100.0 mg/kg/injection, schedule: Q01DX009 (ip), vehicle: carboxymethylcellulose (CMC)); 0 of 4 (dose: 200.0 mg/kg/injection, schedule: Q01DX001 (ip), vehicle: carboxymethylcellulose (CMC)); 0 of 4 (dose: 400.0 mg/kg/injection, schedule: Q01DX001 (ip), vehicle: carboxymethylcellulose (CMC)).
Consider `NC(N)=N/N=C/C(Cl)Cl`, for which the T/C is 130 % of control [5 of 6 alive] (dose: 90.0 mg/kg/injection, schedule: Q01DX Z (oral), vehicle: carboxymethylcellulose (CMC)); 125 and 133 % of control under setting [1]; 125 and 146 % of control (dose: 150.0 mg/kg/injection, schedule: Q01DX Z (oral), vehicle: carboxymethylcellulose (CMC)). Moreover, the survivor count is, setting by setting: (dose: 120.0 mg/kg/injection, schedule: Q01DX Z (ip), vehicle: carboxymethylcellulose (CMC)) 3 of 6; under setting [1], 3 of 6; (dose: 150.0 mg/kg/injection, schedule: Q01DX009 (ip), vehicle: saline) 0 of 6; (dose: 180.0 mg/kg/injection, schedule: Q01DX Z (oral), vehicle: carboxymethylcellulose (CMC)) 2 of 6; under setting [2], 0 of 6; (dose: 225.0 mg/kg/injection, schedule: Q01DX009 (ip), vehicle: saline) 0 of 6. Besides, the survivor count reads like this: (dose: 240.0 mg/kg/injection, schedule: Q01DX Z (oral), vehicle: carboxymethylcellulose (CMC)) 1 of 6 and 3 of 6; (dose: 335.0 mg/kg/injection, schedule: Q01DX009 (ip), vehicle: saline) 0 of 6; (dose: 480.0 mg/kg/injection, schedule: Q01DX Z (oral), vehicle: carboxymethylcellulose (CMC)) 0 of 6; (dose: 960.0 mg/kg/injection, schedule: Q01DX Z (oral), vehicle: carboxymethylcellulose (CMC)) 0 of 6.
For the compound `CC(C)(C)c1ccc(C(=O)C2CC2)cc1`, the survivor count (dose: 200.0 mg/kg/injection, schedule: Q01DX009 (ip), vehicle: saline with Tween-80) is 0 of 6.
Turning to `O=c1cc(C[n+]2ccccc2)[nH]c(=O)[nH]1`, under setting [3], the survivor count is 0 of 4.
For `CC1=C(C)C(=O)C(SC2CC(=O)OC2=O)=C(C)C1=O` (stereo not drawn), the survivor count reads like this: (dose: 200.0 mg/kg/injection, schedule: Q01DX001 (ip), vehicle: saline with Tween-80) 6 of 6; (dose: 400.0 mg/kg/injection, schedule: Q01DX001 (ip), vehicle: saline with Tween-80) 6 of 6.
On to `CC1CC=C(C2CC(C)CC(N(C)C)C2=N)CC1` (stereo not drawn), for which the survivor count (dose: 400.0 mg/kg/injection, schedule: Q01DX009 (sc), vehicle: olive oil, sesame oil, peanut oil) is given as 2 of 6.
Consider `O=C(Nc1ccc(C2=NCCN2)cc1)N1CCN(C(=O)Nc2ccc(C3=NCCN3)cc2)CC1`, for which the survivor count (dose: 62.5 mg/kg/injection, schedule: Q01DX Z (ip), vehicle: water) was 1 of 6; the survivor count under setting [4] was 3 of 10 and 4 of 10; the survivor count (dose: 125.0 mg/kg/injection, schedule: Q01DX Z (ip), vehicle: water) is listed as 1 of 6; the survivor count under setting [5] is given as 0 of 10, 5 of 10, 6 of 10; the survivor count under setting [6] was 6 of 10; the survivor count (dose: 500.0 mg/kg/injection, schedule: Q01DX Z (ip), vehicle: water) is on record as 6 of 6. For the same compound, the T/C is 141 and 160 % of control [9 of 10 alive] under setting [4]; 205 % of control [8 of 10 alive] under setting [5]; 196 [8 of 10 alive], 238, 252 % of control under setting [6].
On to `FC(F)(F)c1cccc(N2CCNCC2)c1`, for which the survivor count by setting is: (dose: 150.0 mg/kg/injection, schedule: Q01DX001 (ip), vehicle: acid diluted with saline) 0 of 6; (dose: 300.0 mg/kg/injection, schedule: Q01DX001 (ip), vehicle: acid diluted with saline) 0 of 6.
As to `CCOC(=O)CSC(=S)N(C)C`, the survivor count (dose: 50.0 mg/kg/injection, schedule: Q01DX009 (ip), vehicle: Klucel (hydroxypropylcellulose) (HPC)) is 3 of 3.
In the case of `Oc1c(Br)cc(F)cc1Br`, under “dose: 400.0 mg/kg/injection, schedule: Q04DX002 (ip), vehicle: saline with Tween-80”, the survivor count was 3 of 3.
Turning to `CCCCCCCCC[n+]1ccc(C(N)=O)cc1`, the survivor count runs as follows: (dose: 200.0 mg/kg/injection, schedule: Q04DX003 (ip), vehicle: saline with Tween-80) 0 of 6; (dose: 400.0 mg/kg/injection, schedule: Q04DX003 (ip), vehicle: saline with Tween-80) 0 of 6.
For `C=CSc1ccccc1`, under “dose: 400.0 mg/kg/injection, schedule: Q01DX009 (ip), vehicle: saline with Tween-80”, the survivor count is recorded as 5 of 6.
`C/C=C/C=N/Nc1ccccc1`: the survivor count (dose: 400.0 mg/kg/injection, schedule: Q01DX001 (ip), vehicle: other) is listed as 4 of 6.
On to `N#CC(C#N)=Cc1ccsc1`, for which the survivor count reads like this: (dose: 50.0 mg/kg/injection, schedule: Q04DX003 (ip), vehicle: Klucel (hydroxypropylcellulose) (HPC)) 1 of 6; (dose: 100.0 mg/kg/injection, schedule: Q04DX003 (ip), vehicle: Klucel (hydroxypropylcellulose) (HPC)) 0 of 6; (dose: 200.0 mg/kg/injection, schedule: Q04DX003 (ip), vehicle: Klucel (hydroxypropylcellulose) (HPC)) 0 of 6; (dose: 400.0 mg/kg/injection, schedule: Q04DX003 (ip), vehicle: Klucel (hydroxypropylcellulose) (HPC)) 0 of 6.
As for `CCCC(=O)N(C(=O)CCC)c1cc2c3c(c1)CCCN3CCC2`, the survivor count is, setting by setting: (dose: 100.0 mg/kg/injection, schedule: Q01DX009 (ip), vehicle: Klucel (hydroxypropylcellulose) (HPC)) 6 of 6; under setting [2], 6 of 6; under setting [3], 3 of 6.
Turning to `CCCCCCCCC1OCC(C)O1` (stereo not drawn), the survivor count is, setting by setting: (dose: 55.0 mg/kg/injection, schedule: Q01DX Z (ip), vehicle: methylcellulose (MC)) 5 of 6; (dose: 82.5 mg/kg/injection, schedule: Q01DX Z (ip), vehicle: methylcellulose (MC)) 5 of 6; (dose: 184.0 mg/kg/injection, schedule: Q01DX Z (ip), vehicle: methylcellulose (MC)) 5 of 6.
